Experimental data published in publication doi:10.1101/2023.04.27.538571.
Where a chain is given by its changes, count along the chain named. In names and notes the source's numbering stands. No constants are given. Whether binding was seen depends on the method and setting. In cells and extracts the contact can be indirect. Some results given as binding are weak or reduced against the parent protein; the word gives no strength. Sequences can lack the tags named with a protein.

How the values were obtained:
[1] = molecular target: T1, SNX1-nYFP (SORTING NEXIN 1) (Arabidopsis thaliana) (UniProt Q9FG38); assay: split reporter
T1 sequence: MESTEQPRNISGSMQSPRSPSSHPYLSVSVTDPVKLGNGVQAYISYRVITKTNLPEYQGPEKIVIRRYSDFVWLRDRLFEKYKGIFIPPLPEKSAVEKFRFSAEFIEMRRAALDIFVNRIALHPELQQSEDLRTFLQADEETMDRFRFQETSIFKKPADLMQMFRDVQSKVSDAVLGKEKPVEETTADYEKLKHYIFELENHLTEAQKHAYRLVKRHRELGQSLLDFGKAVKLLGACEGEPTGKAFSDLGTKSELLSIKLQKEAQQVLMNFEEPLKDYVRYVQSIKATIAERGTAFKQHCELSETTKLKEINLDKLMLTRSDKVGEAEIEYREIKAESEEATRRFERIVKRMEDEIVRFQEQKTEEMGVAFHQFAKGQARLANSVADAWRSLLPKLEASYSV

[2] = molecular target: T2, PATL2-nYFP (PATELLIN 2) (Arabidopsis thaliana) (UniProt Q56ZI2); assay: split reporter
T2 sequence: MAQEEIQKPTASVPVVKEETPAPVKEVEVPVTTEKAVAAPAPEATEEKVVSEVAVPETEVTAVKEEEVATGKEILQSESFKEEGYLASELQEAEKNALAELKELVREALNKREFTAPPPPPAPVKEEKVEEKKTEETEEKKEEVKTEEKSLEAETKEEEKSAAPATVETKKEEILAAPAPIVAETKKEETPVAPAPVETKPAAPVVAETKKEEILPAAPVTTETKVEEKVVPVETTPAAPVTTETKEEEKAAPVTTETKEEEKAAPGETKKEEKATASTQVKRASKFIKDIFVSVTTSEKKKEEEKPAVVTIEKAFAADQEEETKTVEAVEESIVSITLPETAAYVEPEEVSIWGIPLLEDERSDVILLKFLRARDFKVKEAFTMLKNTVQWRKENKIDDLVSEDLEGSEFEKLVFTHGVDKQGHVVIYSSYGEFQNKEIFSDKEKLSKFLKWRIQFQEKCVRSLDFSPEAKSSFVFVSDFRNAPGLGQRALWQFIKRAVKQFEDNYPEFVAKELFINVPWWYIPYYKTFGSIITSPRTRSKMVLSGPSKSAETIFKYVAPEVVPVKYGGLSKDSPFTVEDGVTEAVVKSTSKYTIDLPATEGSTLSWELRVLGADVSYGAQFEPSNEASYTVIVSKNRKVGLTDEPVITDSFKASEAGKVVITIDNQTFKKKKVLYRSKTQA

[3] = molecular target: T3, nYFP-IRT1vr (Arabidopsis thaliana) (UniProt Q38856); assay: split reporter
T3 sequence: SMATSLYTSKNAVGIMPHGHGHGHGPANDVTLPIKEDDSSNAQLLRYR

[4] = molecular target: T4, IRT1vr-mCherry (Arabidopsis thaliana) (UniProt Q38856); assay: FRET or BRET
T4 sequence: T3 sequence

B1: cYFP-TTN5^Q70L (protein, UniProt Q9ZPX1 1-185)
chain: MGLLSIIRKIKKKEKEMRILMVGLDNSGKTTIVLKINGEDTSVISPTLGFNIKTIIYQKYTLNIWDVGGLKTIRSYWRNYFEQTDGLVWVVDSSDLRRLDDCKMELDNLLKEERLAGSSLLILANKQDIQGALTPDEIGKVLNLESMDKSRHWKIVGCSAYTGEGLLEGFDWLVQDIASRIYMLD
With B1 the binding [1] was “binds”, the binding [2] was “no binding” and the binding [3] was “binds”.

B2: cYFP-TTN5^T30N (protein, UniProt Q9ZPX1 1-185)
chain: B1 chain with T30N, L70Q
B2 was tested, and the binding [1] was “no binding”, the binding [2] was “no binding” and the binding [3] was “binds”.

B3: GFP-TTN5^T30N (protein, UniProt Q9ZPX1 1-185)
chain: B1 chain with T30N, L70Q
B3 was tested, and the binding [4] was “binds”.

B4: GFP-TTN5^Q70L (protein, UniProt Q9ZPX1 1-185)
chain: B1 chain
For B4, the binding [4] was “binds”.
